# From US9255118B2, “Light induced drug release” (UNIVERSITEIT LEIDEN, priority 2010, dated 2016)
# Assay: Ultracentrifugation: immobilization of ruthenium at DMPG and DMPC vesicles
# Type: physicochemical
# Settings: after irradiation
substance,measurement,setting,value
[Ru(terpy)(bpy)(OH2)](BF4)2 [[Ru(terpy)(bpy)(OH2)]^2+],complexes contained in the pellet,anionic DMPG vesicles,~85%
same,initial absorbance retained in supernatant,anionic DMPG vesicles,~15%
same,interaction with the lipid bilayer,neutral DMPC vesicles,essentially non-interacting with the lipid bilayer
